In paper PMC2779590 one finds binding data, which are given here for one substance.

Sequences of proteins named here, by UniProt entry; tags and fusion partners are left off.
UniProt P05556: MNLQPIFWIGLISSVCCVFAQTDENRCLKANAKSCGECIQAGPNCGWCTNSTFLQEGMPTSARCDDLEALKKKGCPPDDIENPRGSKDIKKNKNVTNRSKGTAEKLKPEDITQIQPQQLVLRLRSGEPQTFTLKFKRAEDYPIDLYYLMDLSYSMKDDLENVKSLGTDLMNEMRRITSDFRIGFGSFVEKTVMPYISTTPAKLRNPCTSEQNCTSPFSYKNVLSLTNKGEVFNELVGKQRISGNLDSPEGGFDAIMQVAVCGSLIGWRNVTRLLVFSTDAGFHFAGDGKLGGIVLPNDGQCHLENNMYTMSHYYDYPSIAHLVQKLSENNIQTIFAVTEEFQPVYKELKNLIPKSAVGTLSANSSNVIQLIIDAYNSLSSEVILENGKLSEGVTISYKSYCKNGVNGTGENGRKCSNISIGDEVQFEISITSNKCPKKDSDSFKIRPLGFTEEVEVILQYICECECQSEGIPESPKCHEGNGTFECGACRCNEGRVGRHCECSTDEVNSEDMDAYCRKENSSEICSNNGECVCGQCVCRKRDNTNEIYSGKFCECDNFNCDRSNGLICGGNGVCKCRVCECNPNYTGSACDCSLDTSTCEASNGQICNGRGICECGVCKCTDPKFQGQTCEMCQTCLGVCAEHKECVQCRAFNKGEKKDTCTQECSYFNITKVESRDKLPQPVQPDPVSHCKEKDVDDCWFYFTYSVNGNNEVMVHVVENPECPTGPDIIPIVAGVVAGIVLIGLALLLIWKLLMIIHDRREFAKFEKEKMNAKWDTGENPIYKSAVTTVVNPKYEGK
UniProt B5Z6P9: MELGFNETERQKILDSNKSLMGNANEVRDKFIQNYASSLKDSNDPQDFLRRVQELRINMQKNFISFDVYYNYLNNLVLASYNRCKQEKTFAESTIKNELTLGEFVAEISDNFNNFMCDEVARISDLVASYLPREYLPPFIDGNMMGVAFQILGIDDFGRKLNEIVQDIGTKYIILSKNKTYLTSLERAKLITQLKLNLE

No constants are given. Whether binding was seen depends on the method and setting.

For this assay, the target named is β1 integrin on GE11β cells (human) (UniProt P05556). The assay can be described thus: flow cytometry on cells; only the binder purified. (In general: A flow cytometer gives signals particle by particle.)

Consider “GST-CagZ (HP0526) (from UniProt B5Z6P9 1-199)”, for which the binding result was “no binding (tested: 30mg/1×10^6 cells)”.
